Measured values taken from PubChem BioAssay AID624297 (National Center for Advancing Translational Sciences (NCATS), 2012).
Out of some 340,000 compounds screened, about 6,200 (1.8%) were called active. Inconclusive means that the source gave no clear call. Such entries were picked first, then a sample of the others. Calls follow the shape of the dose curve; as a rule, active = well fitted activation curve with a large enough effect; inconclusive = small, poorly fitted or top-dose-only effect; inactive = no such curve, though single readings can be large or run the other way. Potencies of inconclusive entries are doubtful fits and often do not repeat.

Assay: A quantitative high throughput screen for small molecules that induce DNA re-replication in SW480 colon adenocarcinoma cells. Also: nearly all actives have a fitted effect of over 55% in size. As to re-replication activation: % of control where 0% means no effect.
Conditions: Hoechst DNA content imaging, 48 h; re-replication activation: at 46.1 µM (top of the series) unless noted
Outline: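 Compounds, transferred as 23 nL by pin tool, were incubated with cells for 48 hr; DNA content per nucleus was then quantified by Hoechst staining and fluorescence plate imaging.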
Potency is read from the fitted curve at half-maximal effect.

Row | SMILES | re-replication activation | Potency
1 | CSCCC(NS(=O)(=O)c1ccc(C)cc1)C(=O)N1CCN(C(C)=O)CC1 (stereo not given) | inactive: -33.9% | 
2 | Cn1ncc2c(=O)[nH]cnc21 |  | inconclusive: 29.1 µM [activator, single point]
3 | COc1cc([N+](=O)[O-])cc(/C=N/NC(=O)c2cc(-c3ccccc3)nc3ccccc23)c1O | inactive: 16.1% | 
4 | CCOC(=O)c1sc(Nc2cccc(Cl)c2)nc1C | inactive: -81.9% | 
5 | NC(=O)C1CCCN(C(=O)c2ccc(-c3cccc(Cl)c3Cl)o2)C1 (stereo not given) |  | inconclusive: 6.51 µM [activator, single point]
6 | Cc1nn(C(=O)/C(C#N)=C/N(C)C)c(C)c1C |  | inconclusive: 0.731 µM [activator, partial curve, poor fit]
7 | O=C(N/N=C/c1ccc(Br)cc1)c1ccc(Br)o1 | inactive: -7.06% | 
8 | O=C(CCNc1cccc(F)c1)c1cc2ccccc2o1 |  | inconclusive: 23.1 µM [activator, single point]
9 | CCOc1ccc(CCNC(=O)COC(=O)c2cccnc2SC)cc1OCC | inactive: -2.95% | 
10 | Cc1cccc(NC(c2ccc(C)s2)c2ccc3ccc(C)nc3c2O)n1 (stereo not given) |  | inconclusive: 16.4 µM [activator, single point]
11 | CCN(CC)c1nc(Oc2ccc(C(=O)NN)cc2)nc(Oc2ccc(C(=O)NN)cc2)n1 | inactive: 1.59% | 
12 | O=C(O)c1ccc(/C=N/NC(=O)c2ccc3c(c2)OCCO3)cc1 | inactive: -10% | 
13 | COc1ccccc1CNC(=O)C(=O)c1cn(CC(=O)N2CCOCC2)c2ccccc12 |  | inconclusive: 0.0065 µM [activator, full curve, poor fit]
14 | COc1ccc(NC(=O)[C@@H]2CC=C[C@@H]3CCN(Cc4ccccc4)C(=O)[C@@H]32)cc1 | inactive: -16.9% | 
15 | COc1ccc(/C=C/c2c([N+](=O)[O-])c(=O)n(C)c(=O)n2C)cc1O |  | inconclusive: 23.1 µM [activator, single point]
16 | CCN(CC)C(=O)Cn1c(=O)oc2ccccc21 |  | inconclusive: 29.1 µM [activator, single point]
17 | COc1ccc(-c2ccc3c(c2)S(=O)(=O)c2cccc(C(=O)N4CCN(C5CCCCC5)CC4)c2C3=O)cc1OC |  | active: 20.6 µM
18 | COC(=O)CN=Cc1c(C)[nH]n(-c2ccccc2)c1=O |  | inconclusive: 5.8 µM [activator, single point]
19 | COc1ccccc1NC(=O)Cc1noc(CSc2cc(C)c3ccccc3n2)n1 | inactive: -3.61% | 
20 | COc1ccccc1/C=C/C1(C(=O)NC2CCCC2)CC(=O)N1c1ccc(F)cc1 (stereo not given) |  | active: 16.4 µM
21 | CC(C)(C)c1nnc(N/N=C/c2ccccc2O)n(N)c1=O | inactive: 11.7% | 
22 | O=C(Nc1nnc(-c2cccs2)o1)c1cccc(C(F)(F)F)c1 |  | inconclusive: 2.31 µM [activator, partial curve, poor fit]
23 | COc1ccc(C(=O)NCCNc2nc3cc(C)c(C)cc3cc2C)cc1 |  | inconclusive: 29.1 µM [activator, single point]

3 compounds from above, sorted by SMILES length, descending.
Row | SMILES | re-replication activation | Potency
11 | CCN(CC)c1nc(Oc2ccc(C(=O)NN)cc2)nc(Oc2ccc(C(=O)NN)cc2)n1 | inactive: 1.59% | 
12 | O=C(O)c1ccc(/C=N/NC(=O)c2ccc3c(c2)OCCO3)cc1 | inactive: -10% | 
8 | O=C(CCNc1cccc(F)c1)c1cc2ccccc2o1 |  | inconclusive: 23.1 µM [activator, single point]

Remaining list, next part:

Row | SMILES | re-replication activation | Potency
24 | COc1cccc(-c2csc(N3CCN(CC(=O)Nc4ccc5c(c4)OCO5)CC3)n2)c1 | inactive: 3.08% | 
25 | CC(OC(=O)C1CCN(c2ccc(C(F)(F)F)cn2)CC1)C(=O)Nc1cccc([N+](=O)[O-])c1 (stereo not given) | inactive: 10.3% | 
26 | CC(=O)N1N=C(c2ccccc2)CC1c1cccs1 (stereo not given) | inactive: 8.15% | 
27 | CCn1c(/C=C2\C(=O)N(C(C)C)c3ccccc32)nc2ccccc2c1=O |  | inconclusive: 3.26 µM [activator, full curve]
28 | O=C(NC(=S)Nc1ccc(N2CCCCC2)cc1)c1cccs1 |  | inconclusive: 10.3 µM [activator, partial curve]
29 | CCn1c(=N)n(CC(O)COc2ccc(C)cc2)c2ccccc21 (stereo not given) |  | inconclusive: 3.66 µM [activator, full curve, poor fit]
30 | O=C(NC1CCCCC1)C(c1ccc2ncccc2c1)N(Cc1ccccc1)C(=O)c1cccs1 (stereo not given) |  | inconclusive: 25.9 µM [activator, single point]
31 | FC(F)(F)c1cccc(-n2c(Cn3nnc4ccccc43)n[nH]c2=S)c1 |  | active: 2.59 µM
32 | CCCn1c2ccccc2c2cnn(CC(=O)NCCCN3CCN(c4ccccc4)CC3)c(=O)c21 |  | inconclusive: 18.4 µM [activator, single point]
33 | Nc1nc(NC(=O)c2cccc(S(=O)(=O)N3CCCCCC3)c2)nc(-c2ccccc2)n1 |  | inconclusive: 16.4 µM [activator, single point]
34 | Cc1cccc(N2CCN(C(=O)Cc3ccc(Br)cc3)CC2)c1C |  | inconclusive: 20.6 µM [activator, partial curve, poor fit]
35 | C=C1C(CCl)(CCl)C2(Cl)C(Cl)C(Cl)C1(Cl)C2(Cl)Cl (stereo not given) |  | inconclusive: 33.5 µM [activator, single point]
36 | COc1cc(/C=C(\C#N)C(=O)NC2CCCCC2C)ccc1OS(=O)(=O)c1ccc(C)cc1 (stereo not given) |  | inconclusive: 23.1 µM [activator, single point]
37 | CC(C)c1cc2c(cc1S(=O)(=O)O)[C@@]1(C)CCC[C@@](C)(C(=O)O)[C@@H]1CC2 | inactive: 3.09% | 
38 | Cc1cc(C)cc(NC(=O)C2CCCN2C(=O)Oc2ccccc2)c1 (stereo not given) |  | inconclusive: 1.3 µM [activator, full curve, poor fit]
39 | COc1ccc2[nH]c3c(c2c1)CCN1C(=O)N([C@@H](C)C(=O)NCc2ccco2)C(=O)[C@]31C |  | inconclusive: 2.59 µM [activator, single point]
40 | COC(=O)c1ccc(S(=O)(=O)c2ccc(C(=O)OC)s2)s1 |  | inconclusive: 29.1 µM [activator, single point]
41 | O=C(Oc1ccc(Br)cc1)c1cccnc1 | inactive: -2.56% | 
42 | COCCn1c(C)cc(C(=O)CSc2nc3ccccc3c(=O)n2Cc2ccco2)c1C | inactive: -1.83% | 
43 | CCCOP(=O)(c1ccc(N(C)C)cc1)C(Nc1ccccc1)c1ccc(C)cc1 (stereo not given) | inactive: 8.7% | 
44 | O=C(Nc1cccc(NC(=O)c2cc([N+](=O)[O-])ccc2Cl)n1)c1cc([N+](=O)[O-])ccc1Cl |  | inconclusive: 20.6 µM [activator, single point]
45 | O=C(CSc1nc2ccccc2[nH]1)N/N=C/C=C\c1ccccc1[N+](=O)[O-] |  | inconclusive: 16.4 µM [activator, partial curve, poor fit]
